These are yes or no findings as the source states them, for the method shown. Some entries that bind do so weakly or less than the wild type.
Tests used:
Assay in all cases: two-hybrid; CheckMate mammalian two-hybrid system in 293T cells; pG5/luc, pBIND bait and pACT prey at 1:1:1; luciferase 24 h after transfection, normalised to pACT vector with the pBIND bait (=1)
[1] = target: DAXX (pBIND fusion) (UniProt Q9UER7)
[2] = target: SUMO2 (pBIND fusion) (UniProt P61956)
[3] = target: SUMO3 (pBIND fusion) (UniProt P55854)
[4] = target: full-length PML isoform IV, wild type (mammalian two-hybrid fusions) (human (by the UniProt code P29590-5)) (UniProt P29590)

Chains of the proteins cited; added tags and fusions are not shown.
UniProt Q9UER7: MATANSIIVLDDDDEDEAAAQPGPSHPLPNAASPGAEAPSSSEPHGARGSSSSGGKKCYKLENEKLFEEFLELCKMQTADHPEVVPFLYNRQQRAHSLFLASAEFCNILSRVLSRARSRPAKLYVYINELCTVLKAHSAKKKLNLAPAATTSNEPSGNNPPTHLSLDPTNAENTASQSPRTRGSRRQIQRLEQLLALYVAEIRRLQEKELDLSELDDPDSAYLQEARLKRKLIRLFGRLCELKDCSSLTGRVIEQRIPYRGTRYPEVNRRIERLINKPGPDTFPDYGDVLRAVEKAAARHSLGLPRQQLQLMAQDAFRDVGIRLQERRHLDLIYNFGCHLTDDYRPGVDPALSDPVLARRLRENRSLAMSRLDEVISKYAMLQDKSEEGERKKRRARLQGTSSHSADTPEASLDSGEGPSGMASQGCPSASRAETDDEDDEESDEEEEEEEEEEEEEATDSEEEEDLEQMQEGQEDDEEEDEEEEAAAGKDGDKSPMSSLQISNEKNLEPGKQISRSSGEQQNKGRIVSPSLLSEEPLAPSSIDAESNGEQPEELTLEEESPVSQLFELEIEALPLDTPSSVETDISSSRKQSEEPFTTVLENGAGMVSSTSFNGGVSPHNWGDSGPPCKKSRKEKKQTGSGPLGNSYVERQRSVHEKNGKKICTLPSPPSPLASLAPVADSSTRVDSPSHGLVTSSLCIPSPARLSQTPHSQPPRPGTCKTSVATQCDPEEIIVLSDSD
UniProt P61956: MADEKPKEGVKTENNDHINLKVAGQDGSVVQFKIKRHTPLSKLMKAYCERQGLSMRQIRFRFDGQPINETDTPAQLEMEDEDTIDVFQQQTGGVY
UniProt P55854: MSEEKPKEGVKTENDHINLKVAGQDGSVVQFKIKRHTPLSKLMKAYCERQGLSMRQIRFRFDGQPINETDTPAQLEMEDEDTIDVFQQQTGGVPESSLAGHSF

Measured: binding

full-length PML isoform IV, wild type (mammalian two-hybrid fusions) (from UniProt P29590-5 1-633)
binds: all assays above

Reference: article PMC6706441, “B1 oligomerization regulates PML nuclear body biogenesis and leukemogenesis” (Nature Communications, 2019)
